Changes are numbered by the printed parent chain. Results are given in words; binding and its absence hold for the method and conditions named. In cells and extracts the contact can be indirect. A result given as binding can be weak or reduced; the word gives no strength. For some of these results: Tags and fused reporters may be left off the sequences shown.
How the values were obtained:
[1] = biological target: T1, endogenous signal peptide peptidase of HEK293 cells (human (endogenous in HEK293)) (UniProt Q8TCT9); assay: co-IP; fluorescent-protein-tagged partner overexpressed in HEK293 cells, normoxia or 48 h hypoxia (1% O2); endogenous SPP precipitated with rabbit anti-SPP and Protein A Sepharose at 4°C, washed with PBS; blot with anti-GFP
T1 sequence: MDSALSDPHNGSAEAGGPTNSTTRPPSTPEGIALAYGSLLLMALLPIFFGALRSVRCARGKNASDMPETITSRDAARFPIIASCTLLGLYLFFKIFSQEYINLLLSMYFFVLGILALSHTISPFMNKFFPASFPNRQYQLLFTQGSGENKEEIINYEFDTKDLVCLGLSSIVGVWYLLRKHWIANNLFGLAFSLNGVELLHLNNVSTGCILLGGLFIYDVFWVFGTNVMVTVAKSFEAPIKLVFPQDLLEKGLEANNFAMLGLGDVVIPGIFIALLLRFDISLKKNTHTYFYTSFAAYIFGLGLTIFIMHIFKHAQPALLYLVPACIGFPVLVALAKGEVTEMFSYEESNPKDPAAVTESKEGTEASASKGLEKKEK

[2] = biological target: T2, HA-tagged signal peptide peptidase, catalytically inactive mutant D219A (UniProt Q8TCT9); assay: co-IP; HA-SPP variant and fluorescent-protein-tagged partner co-expressed in HEK293 cells under normoxia; cell extract (50 mM TEA, 1 mM EDTA, pH 7.4) precipitated with rabbit anti-HA and Protein A Sepharose at 4°C, washed with PBS; blot with anti-GFP; IgG control-antibody gave no signal
T2 sequence: T1 sequence with D219A

binding [1]	binding [2]	Substance
binds	–	HO-1 deletion variant HO-1-ΔN181 (human) (domain or fragment)
no binding	binds	HO-1 deletion variant HO-1-ΔN262 (isolated anchor) (human) (domain or fragment)
–	no binding	anchorless HO-1 variant GFP-HO-1-ΔC266 (human) (domain or fragment)
